The other results are listed elsewhere or left out.

Consider one molecule from the supplement of paper PMC8728848.

The target in assay [1] is Neu5Gc(a2-8)Neu5Gc(a2-6)Gal(b1-4)GlcNAc. In words: glycan array binding signal (z-score within array); higher = stronger binding. As to conditions: glycan notation: IUPAC condensed, linker removed. An outline of the steps: (§1)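 Negative Z-scores can be read as non-binding. The Z-score is calculated within each array and then averaged across arrays of one protein sequence at different concentrations or buffers and across linkers. Arrays, 3228 in all, were curated from the Consortium for Functional Glycomics database and kept only where the protein sequence was available.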

Assay [2] deals with Neu5Gc(b2-6)Gal(b1-4)GlcNAc. The assay is described as above. Conditions: glycan notation: IUPAC condensed, linker removed. An outline of the steps: as §1

B1: Mnn9-2N3 (Aspergillus fumigatus) (protein)
chain: MAVARRMRRTNPITLLLAAILAIGFFIFVLSPSTTSASPVKAGSASSSSTSQQRREDNAAENPLSPPTKPFFKSQPVRHDGQQAPPPVVQYNLNQLSSTSTSAANGERILILTPMARFVPEYWDNVVKLTYPHELISIGFIIPKNKEGNAALAALEAAIAKTQSGPIDKRFASISILRQDFEPPLQSQDEKERHKISNQKARRESMSRARNSLLFTTLGPATAWVLWLDADIVETPPTLIQDLTAHDHPVLVPNCYQRYYNSEKKKMDVRPYDYNSWIDSSTAQSMAAEMGPDEILLEGYAEMPTYRTLMAHLADTANPNPKKVIELDGVGGTALMVKAEVHRDGAMFPAFPFYHLVETEGFAKMAKRLGYSVYGLPDYFVSRNFFFFFFFFFFG
Take B1: the entries for the “glycan array binding signal (z-score)” value in assay [1] and in assay [2] were 0.089 and -0.3, respectively.
